Laboratory results published in paper PMC6408466, “Inner lumen proteins stabilize doublet microtubules in cilia and flagella” (Nature Communications, 2019).
Results are given in words; binding and its absence hold for the method and conditions named. Binding seen in cells or lysates may run through a third protein. Some binding calls cover weakened binding; strength is not graded here. Tags and fused reporters may be left off the sequences shown.

Molecular target: T1, FAP45 (flagellar-associated protein 45) (Chlamydomonas (endogenous in wild type axonemes)) (UniProt A8I9E8)
T1 sequence: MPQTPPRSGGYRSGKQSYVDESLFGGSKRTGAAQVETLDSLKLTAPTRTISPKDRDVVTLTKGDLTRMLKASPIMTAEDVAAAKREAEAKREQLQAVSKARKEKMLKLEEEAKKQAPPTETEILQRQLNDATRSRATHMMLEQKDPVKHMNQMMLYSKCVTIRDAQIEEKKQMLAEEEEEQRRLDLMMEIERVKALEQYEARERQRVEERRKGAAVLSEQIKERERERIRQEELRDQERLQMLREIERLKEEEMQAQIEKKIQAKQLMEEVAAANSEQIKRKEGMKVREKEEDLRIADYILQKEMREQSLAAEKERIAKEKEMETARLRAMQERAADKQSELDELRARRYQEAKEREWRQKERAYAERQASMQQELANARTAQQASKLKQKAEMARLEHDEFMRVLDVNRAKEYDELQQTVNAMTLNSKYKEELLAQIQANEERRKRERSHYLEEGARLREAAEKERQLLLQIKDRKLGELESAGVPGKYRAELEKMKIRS
Test: cross-linking; isolated axonemes treated with EDC (zero-length crosslinker) in HMEK (30 mM Hepes-KOH pH 7.4, 5 mM MgSO4, 1 mM EGTA, 50 mM K-acetate), 60 min, room temperature; SDS-PAGE and western blot with anti-FAP45 and anti-FAP52 antibodies; wild type compared with fap45 and fap52 axonemes

binding: binds
B1: FAP52 (flagellar-associated protein 52) (natural protein, UniProt A8ILK1 1-615, looked up)
chain: MAEPLVLNSVIGFGGAIENGLIAHPDGRTIIYPLGSTIVLRDRADPRSQEFLQGHSDKVSCLALSRSGRYLASGQITYMGFTADIIIWDLESKQLIHRMALHKVKVQALDFSCDERFLASLGGQDDNALVLWDVASGNAICGSPCNTNFTNCVKFFNNSPDKLITAGNFNMNVWTYDAGNNKLRPTDATLGTLKRVFKSVVVDANDEYAYCGTTTGDVLQIALERVLFKNTGPAKGNVQMGVTATCEVPTGDILVGGGDGSLQLLRKMPALAGTKVEGAITSIALADMNARGFTFFVGTAMCNIYKPATSRLKEELVQTAHNDKINGMAFPNEYSEVFATCGTGFIRLWHLTTCRELLRIAVPNLECFCIAFTTDGSAILSGWSDGKIRAFGPQSGKIIFTINDAHQKAVTAIASTADSSRILSGGEEGMVRVWRIGRTSQTLEASMKDHKGPVNCIRIKGSGDECVSASSDGSCILWDLHTFKRRTSLFANTFFKSVVYHPDESQLVTAGTDRKVTYWDAYDGNAIRIIDGSDLDEVNALAVDRDGEALVSGGGDKLVKLWGYDEGHCYFVGVAHSGAITAVGVTPDKQRIVSVGTEGGIFIWDYQRPQTLADI
notes: FAP52 of Chlamydomonas, ortholog of human WDR16, ~66 kDa, WD40 repeat protein; endogenous protein in the axoneme; also called FAP52/WDR16; MIP3a; source: endogenous, isolated wild type Chlamydomonas axonemes
